Data as given in PubChem BioAssay AID1159578 (Peter MacCallum Cancer Centre, 2015).
This is a random part of about 18,000 reagents. In the full data, about 1,030 (5.7%) got an active call. 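Inactive calls also include pools with fewer than 3300 nuclei, whose migration was not assessed.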 The raw values are shown without normalisation. Unmarked entries are inactive.

Test: 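Genome-wide hunt for genes controlling movement of lymphatic endothelial cells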 (primary screen)
Cells: human lymphatic endothelial cells
Knock-down reagent: siRNA pool against human genes, 40 nM
Timing: 48 h after transfection
Read-out: 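Cells stained with dye and imaged after a scratch; covered wound area and nuclei counted, duplicates averaged, migration set against mock wells and turned into a robust z-score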
Scale: migration robust z-score: higher = faster migration into the scratch; migration relative to mock: higher = more scratch area covered than mock; nuclei per well: higher = more cells in the well
Hit rule: 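Migration changed when robust z exceeds 2 or falls below -2 and mean nuclei number is at least 3300; otherwise not called changed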
Meaning of the calls: active = migration changed; inactive = no migration change, or too few cells

no.	Target gene	migration robust z-score	migration class with cell-count check	migration relative to mock	nuclei per well, duplicate mean
1	ZBTB3	0.44	migration z between -2 and 2; enough cells	1	5432
2	BAAT	-0.75	migration z between -2 and 2; enough cells	0.66	6500
3	DUOX1	-0.68	migration z between -2 and 2; enough cells	0.68	3441
4	FOXO4	-0.68	migration z between -2 and 2; enough cells	0.71	6191
5	IRF8	-3.13 (active)	migration z below -2; enough cells	0.2	4754
6	DEFB130A	-0.18	migration z between -2 and 2; enough cells	0.84	6662
7	CDY2A	-1.04	migration z between -2 and 2; enough cells	0.6	4365
8	F8	-0.9	migration z between -2 and 2; enough cells	0.63	3649
9	SDC1	-1.23	migration z between -2 and 2; enough cells	0.56	5552
10	RGS13	-0.44	migration z between -2 and 2; enough cells	0.77	5789
11	GSTM2	-0.5	migration z between -2 and 2; enough cells	0.71	5326
12	XBP1	0.97	migration z between -2 and 2; enough cells	1.14	6290
13	RADX	0.24	migration z between -2 and 2; enough cells	0.94	7600
14	TMEM254	-0.68	migration z between -2 and 2; enough cells	0.71	4780
15	ZNF827	1.02	migration z between -2 and 2; enough cells	1.16	7383
16	NUTM1	0.6	migration z between -2 and 2; enough cells	1.04	5872
17	DLK2	-0.4	migration z between -2 and 2; enough cells	0.78	6328
18	DBNL	0.8	migration z between -2 and 2; enough cells	1.09	5306
19	EGFR	0.34	migration z between -2 and 2; enough cells	0.87	5358
20	HACD2	-0.9	migration z between -2 and 2; enough cells	0.63	4805
21	DIAPH2	-0.05	migration z between -2 and 2; enough cells	0.88	5544
22	CLDN18	-0.26	migration z between -2 and 2; enough cells	0.82	5259
23	CHKB	-0.2	migration z between -2 and 2; enough cells	0.76	6723
24	RREB1	0.13	migration z between -2 and 2; enough cells	0.83	4673
25	HRNR	-0.12	migration z between -2 and 2; enough cells	0.86	6163
26	PROC	-0.62	migration z between -2 and 2; enough cells	0.68	3832
27	PRUNE1	0.06	migration z between -2 and 2; enough cells	0.9	7708

Active calls, of those listed so far:
Target gene	migration robust z-score	migration class with cell-count check	migration relative to mock	nuclei per well, duplicate mean
IRF8	-3.13 (active)	migration z below -2; enough cells	0.2	4754

The results go on:
no.	Target gene	migration robust z-score	migration class with cell-count check	migration relative to mock	nuclei per well, duplicate mean
28	AIMP2	-1.86	migration z between -2 and 2; enough cells	0.4	5394
29	ATF7	0.88	migration z between -2 and 2; enough cells	0.98	4452
30	H1-2	0.2	migration z between -2 and 2; enough cells	0.94	5744
31	LYRM1	2.41 (active)	migration z above 2; enough cells	1.51	6186
32	FMR1	-1.56	migration z between -2 and 2; enough cells	0.48	5357
33	SND1	0.23	migration z between -2 and 2; enough cells	0.85	6826
34	NMU	-0.14	migration z between -2 and 2; enough cells	0.84	5996
35	DNASE1	-0.23	migration z between -2 and 2; enough cells	0.76	5525
36	TBX5	-0.24	migration z between -2 and 2; enough cells	0.76	7482
37	CDKL4	-0.36	migration z between -2 and 2; enough cells	0.74	4936
38	ZNF644	-0.04	migration z between -2 and 2; enough cells	0.87	3502
39	RPS6KA3	-2.21 (active)	migration z below -2; enough cells	0.38	5024
40	RNF31	1.34	migration z between -2 and 2; enough cells	1.06	7296
41	NAP1L3	0.72	migration z between -2 and 2; enough cells	1.07	5860
42	SERTM1	0.69	migration z between -2 and 2; enough cells	1.06	7202
43	FSTL4	-0.64	migration z between -2 and 2; enough cells	0.72	5777
44	RET	-4.25 (active)	migration z below -2; enough cells	-0.02	3304
45	GDF7	0.05	migration z between -2 and 2; enough cells	0.9	5051
46	UCN2	0.5	migration z between -2 and 2; enough cells	1.02	6490
47	CCNL1	-0.1	migration z between -2 and 2; enough cells	0.78	5184
48	LAT2	-0.8	migration z between -2 and 2; enough cells	0.68	5076
49	ADAT1	-0.26	migration z between -2 and 2; enough cells	0.76	4258
50	RAB31	1.38	migration z between -2 and 2; enough cells	1.07	4474
51	ARHGAP11B	-1.32	migration z between -2 and 2; enough cells	0.55	5013
52	NMNAT2	-1.32	migration z between -2 and 2; enough cells	0.55	4846
53	CSN1S1	-0.82	migration z between -2 and 2; enough cells	0.68	5444
54	CA5B	-0.6	migration z between -2 and 2; enough cells	0.69	4998
55	LMNTD1	-0.23	migration z between -2 and 2; enough cells	0.82	8038
56	KCND3	-0.99	migration z between -2 and 2; enough cells	0.62	6350
57	ZNF514	-0.47	migration z between -2 and 2; enough cells	0.76	4586
58	METAP1	1.01	migration z between -2 and 2; enough cells	1	5456
59	CNOT6	-0.96	migration z between -2 and 2; enough cells	0.64	4858
60	MST1R	-2.04 (active)	migration z below -2; enough cells	0.41	6277
61	CNIH1	-0.84	migration z between -2 and 2; enough cells	0.66	5532
62	DSG1	-2.91 (active)	migration z below -2; enough cells	0.12	3662
63	ZNF613	1.35	migration z between -2 and 2; enough cells	1.06	5014
64	SLC52A1	-0.94	migration z between -2 and 2; enough cells	0.62	5634
65	PTCD3	2.29 (active)	migration z above 2; enough cells	1.48	6770
66	U2AF1	1.38	migration z between -2 and 2; enough cells	1.25	7579
67	TOP3A	1.5	migration z between -2 and 2; enough cells	1.1	5224
68	KRT19	1.17	migration z between -2 and 2; enough cells	1.19	6054
69	ZNF343	0.52	migration z between -2 and 2; enough cells	1.01	4894
70	DPAGT1	2.64 (active)	migration z above 2; enough cells	1.31	4452
71	ZKSCAN7	0.68	migration z between -2 and 2; enough cells	1.06	4896
72	GNA12	-0.62	migration z between -2 and 2; enough cells	0.68	4982
73	REXO1L1P	-0.1	migration z between -2 and 2; enough cells	0.78	5132
